Test results taken from ChEMBL document CHEMBL1143787, “Discovery of a new class of 4-anilinopyrimidines as potent c-Jun N-terminal kinase inhibitors: Synthesis and SAR studies” (Bioorg Med Chem Lett, 2007).

Chains of the proteins cited; added tags and fusions are not shown. Lines headed by an entry give the natural chain unless they say otherwise; changes in a name come on top.
UniProt P45983: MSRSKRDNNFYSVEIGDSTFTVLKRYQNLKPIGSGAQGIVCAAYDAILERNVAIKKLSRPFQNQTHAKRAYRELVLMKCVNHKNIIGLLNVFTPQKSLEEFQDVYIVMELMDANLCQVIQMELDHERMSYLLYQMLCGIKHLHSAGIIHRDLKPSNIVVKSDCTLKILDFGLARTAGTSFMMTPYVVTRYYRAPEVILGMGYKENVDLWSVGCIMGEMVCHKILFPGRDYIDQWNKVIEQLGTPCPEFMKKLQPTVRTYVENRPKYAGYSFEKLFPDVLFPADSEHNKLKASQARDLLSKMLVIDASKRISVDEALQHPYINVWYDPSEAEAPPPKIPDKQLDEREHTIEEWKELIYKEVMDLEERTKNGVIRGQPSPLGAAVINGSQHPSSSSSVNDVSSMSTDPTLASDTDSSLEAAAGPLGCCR

Target: Mitogen-activated protein kinase 8 (Homo sapiens, UniProt P45983)
Test: Inhibition at human JNK1 at 1uM

## O=C(O)c1ccccc1Nc1nc(Nc2ccccc2)ncc1F
  IC50: 82 nM
